PubChem BioAssay AID504791, Drosophila RNAi Screening Center | 2011

- Screen: 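Factors in Argonaute-based small RNA production and activity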 (primary screen)
- Cell system: Drosophila S2-derived reporter cells
- Knock-down reagent: long dsRNA against Drosophila genes, about 150-250 ng dsRNA per well (siRNA assay); about 80-120 ng (miRNA assay)
- Timing: about 5 days (siRNA assay); about 4 days (miRNA assay)
- Treatment: copper sulfate induction of reporters: 25 µM (siRNA assay); 200 mM stated (miRNA assay), 1-2 days before reading
- Measured: 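Dual luciferase assay: Renilla to firefly signal ratio in each well, scaled to the mean ratio of its plate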
- Units: stable assay Renilla, run 1 in luminescence; stable assay firefly, run 1 in luminescence
- Call rule: 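a well was a first-pass pick when its plate-scaled ratio rose above 1.5 (siRNA assay) or 1.6 (miRNA assay), or dropped below 0.6; a gene counted only if two separate dsRNAs agreed on retest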
In all, the deposit lists about 23,000 reagents; shown is an unselected part of those that have a named target and a result. Over the whole deposit, 199 (0.86%) were called active. 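Plate-scaled ratios behind the calls are not deposited; printed light signals are raw; many rows marked increased or decreased are still called inactive.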 A number with no mark means an inactive call. A plus sign joins genes that one reagent is predicted to hit. The record does not give: the direction of the score.

inaF-B + inaF-D + inaF-C + 1 more [DRSC20342]
- stable assay Renilla, run 1: 5843
- stable assay firefly, run 1: 5.07e5

CG18563 [DRSC02676]
- stable assay Renilla, run 1: 8791
- stable assay firefly, run 1: 5.01e5

Gr94a [DRSC13597]
- stable assay Renilla, run 1: 4844
- stable assay firefly, run 1: 4.36e5

CG1552 [DRSC19665]
- stable assay Renilla, run 1: 5695
- stable assay firefly, run 1: 3.07e5

Dys + snoRNA:Me18S-A1374 [DRSC16232]
- stable assay Renilla, run 1: 6227
- stable assay firefly, run 1: 2.26e5

Gr57a [DRSC06401]
- stable assay Renilla, run 1: 6240
- stable assay firefly, run 1: 4.14e5

CG7148 [DRSC11802]
- stable assay Renilla, run 1: 9017
- stable assay firefly, run 1: 3.71e5

CG6345 [DRSC16024]
- stable assay Renilla, run 1: 6542
- stable assay firefly, run 1: 4.35e5

CG15546 [DRSC15084]
- stable assay Renilla, run 1: 5326
- stable assay firefly, run 1: 3.90e5

CG15546 [DRSC22831]
- stable assay Renilla, run 1: 2660
- stable assay firefly, run 1: 3.44e5

Gdap2 [DRSC06789]
- stable assay Renilla, run 1: 7044
- stable assay firefly, run 1: 4.05e5

Gdap2 [DRSC06790]
- stable assay Renilla, run 1: 7018
- stable assay firefly, run 1: 3.52e5

fd3F (retired record) [DRSC17843]
- stable assay Renilla, run 1: 5443
- stable assay firefly, run 1: 2.82e5

fd3F (retired record) [DRSC23032]
- stable assay Renilla, run 1: 5003
- stable assay firefly, run 1: 2.83e5

CG4988 [DRSC02800]
- stable assay Renilla, run 1: 7675
- stable assay firefly, run 1: 4.05e5

CG10184 [DRSC14204]
- stable assay Renilla, run 1: 9258
- stable assay firefly, run 1: 3.63e5

CG32201 [DRSC22452]
- stable assay Renilla, run 1: 2576
- stable assay firefly, run 1: 3.06e5

Droj2 [DRSC16450]
- stable assay Renilla, run 1: 9054
- stable assay firefly, run 1: 4.91e5

CG14892 [DRSC15014]
- miRNA reporter change: reporter ratio lowered past the hit cutoff
- stable assay Renilla, run 1: 8247
- stable assay firefly, run 1: 5.59e5

CG3651 [DRSC03730]
- stable assay Renilla, run 1: 6555
- stable assay firefly, run 1: 4.03e5

tpr [DRSC04468]
- stable assay Renilla, run 1: 37688
- stable assay firefly, run 1: 4.77e5

cactin [DRSC20576]
- stable assay Renilla, run 1: 5220
- stable assay firefly, run 1: 4.19e5

Ric [DRSC07532]
- stable assay Renilla, run 1: 6172
- stable assay firefly, run 1: 3.35e5

CG8891 [DRSC03120]
- stable assay Renilla, run 1: 6727
- stable assay firefly, run 1: 3.98e5

sty [DRSC08737]
- stable assay Renilla, run 1: 5767
- stable assay firefly, run 1: 3.54e5

sty [DRSC22994]
- stable assay Renilla, run 1: 5135
- stable assay firefly, run 1: 3.24e5

PpY-55A [DRSC07513]
- stable assay Renilla, run 1: 6182
- stable assay firefly, run 1: 3.55e5

PpY-55A [DRSC23328]
- stable assay Renilla, run 1: 4147
- stable assay firefly, run 1: 2.97e5

stmA [DRSC05120]
- stable assay Renilla, run 1: 4091
- stable assay firefly, run 1: 4.30e5

stmA [DRSC07593]
- stable assay Renilla, run 1: 5803
- stable assay firefly, run 1: 4.25e5

stmA [DRSC22179]
- stable assay Renilla, run 1: 10306
- stable assay firefly, run 1: 5.55e5

bma [DRSC09896]
- stable assay Renilla, run 1: 5360
- stable assay firefly, run 1: 4.29e5

bma [DRSC10164]
- stable assay Renilla, run 1: 5614
- stable assay firefly, run 1: 3.55e5

Porin2 [DRSC02584]
- stable assay Renilla, run 1: 8294
- stable assay firefly, run 1: 5.22e5

CG34193 [DRSC05665]
- stable assay Renilla, run 1: 6239
- stable assay firefly, run 1: 3.82e5

Copied from above, 4 entries:
inaF-B + inaF-D + inaF-C + 1 more [DRSC20342]
- stable assay Renilla, run 1: 5843
- stable assay firefly, run 1: 5.07e5

CG18563 [DRSC02676]
- stable assay Renilla, run 1: 8791
- stable assay firefly, run 1: 5.01e5

Gr94a [DRSC13597]
- stable assay Renilla, run 1: 4844
- stable assay firefly, run 1: 4.36e5

CG1552 [DRSC19665]
- stable assay Renilla, run 1: 5695
- stable assay firefly, run 1: 3.07e5
